The list shows a part of the results.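 The calls were made as follows: active = dose-dependent thermal stabilisation significant by F-test of dose-response against flat model at 10% FDR; inactive = not significant.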

Amino acid sequences for entries named in this document (tags omitted). A change or cut given only in a name is not applied to a line headed by its entry.
UniProt P49591: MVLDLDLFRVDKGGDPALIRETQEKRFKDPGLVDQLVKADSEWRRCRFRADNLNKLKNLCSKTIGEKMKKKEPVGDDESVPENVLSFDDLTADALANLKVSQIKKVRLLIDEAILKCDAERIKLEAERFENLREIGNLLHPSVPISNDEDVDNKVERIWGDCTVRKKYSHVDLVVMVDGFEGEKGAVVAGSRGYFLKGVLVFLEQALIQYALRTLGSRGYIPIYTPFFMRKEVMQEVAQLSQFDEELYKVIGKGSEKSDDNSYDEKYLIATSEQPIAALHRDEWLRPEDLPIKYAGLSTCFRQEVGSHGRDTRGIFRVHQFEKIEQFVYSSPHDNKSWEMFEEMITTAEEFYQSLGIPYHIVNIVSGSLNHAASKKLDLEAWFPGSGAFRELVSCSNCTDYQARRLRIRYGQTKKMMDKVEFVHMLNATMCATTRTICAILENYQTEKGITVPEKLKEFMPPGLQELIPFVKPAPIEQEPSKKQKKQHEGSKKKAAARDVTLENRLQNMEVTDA

The experiment concerns the target SARS (UniProt P49591). The experiment is described as follows: dose-dependent thermal stabilisation call (2D-TPP, DLPTP, 10% FDR) (binary (1 = stabilised)); higher = stabilised by the compound. Particulars: system: Jurkat gel-filtered lysate; concentration range 1-500 µM. The procedure:
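2D thermal proteome profiling in gel-filtered Jurkat E6.1 lysate (2 mg/ml) treated with NaGTP (0, 1, 10, 100, 500 uM) for 10 min at room temperature, then heated 3 min at one of 12 temperatures (42-63.9 C). Soluble protein was quantified by TMT10 MS. The value is the DLPTP call of the paper: dose-dependent thermal stabilisation over all temperatures at 10% FDR (F-test of a dose-response against a flat model); one experiment, one call per tested protein.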
In the case of `Nc1nc2c(ncn2[C@@H]2O[C@H](COP(=O)(O)OP(=O)(O)OP(=O)(O)O)[C@@H](O)[C@H]2O)c(=O)[nH]1`, the “dose-dependent thermal stabilisation call” value was inactive: 0.

Values taken from the supplement of paper PMC7666118.
